Test [1] deals with β-spectrin (M17 neuroblastoma cells) (human (endogenous in SK-N-BE(2)-M17)). Description: proximity ligation; fixed SK-N-BE(2)-M17 cells; antibodies against 14-3-3θ and β-spectrin or dynamin 1; single-antibody controls.
For test [2], the target named is β-spectrin (mouse cortex) (mouse (endogenous in cortex)). Description: co-IP; wild-type mouse cortex in Pierce IP buffer (25 mM Tris-HCl pH 7.4, 150 mM NaCl, 1 mM EDTA, 1% NP40, 5% glycerol); IP with anti-β-spectrin or anti-dynamin 1 antibody overnight, rabbit IgG control, dynabeads; blot for 14-3-3θ.

No constants are given. Whether binding was seen depends on the method and setting. Binding seen in cells or lysates may run through a third protein. A result given as binding can be weak or reduced; the word gives no strength.

B1: 14-3-3θ (endogenous, M17 neuroblastoma cells) (protein, UniProt P27348 1-245)
chain: MEKTELIQKAKLAEQAERYDDMATCMKAVTEQGAELSNEERNLLSVAYKNVVGGRRSAWRVISSIEQKTDTSDKKLQLIKDYREKVESELRSICTTVLELLDKYLIANATNPESKVFYLKMKGDYFRYLAEVACGDDRKQTIDNSQGAYQEAFDISKKEMQPTHPIRLGLALNFSVFYYEILNNPELACTLAKTAFDEAIAELDTLNEDSYKDSTLIMQLLRDNLTLWTSDSAGEECDAAEGAEN
As for B1, in test [1], the binding result is “binds”.

B2: 14-3-3θ (wild type, mouse cortex) (protein, UniProt P68254 1-245)
chain: MEKTELIQKAKLAEQAERYDDMATCMKAVTEQGAELSNEERNLLSVAYKNVVGGRRSAWRVISSIEQKTDTSDKKLQLIKDYREKVESELRSICTTVLELLDKYLIANATNPESKVFYLKMKGDYFRYLAEVACGDDRKQTIENSQGAYQEAFDISKKEMQPTHPIRLGLALNFSVFYYEILNNPELACTLAKTAFDEAIAELDTLNEDSYKDSTLIMQLLRDNLTLWTSDSAGEECDAAEGAEN
In the case of B2, in test [2], the binding result was “binds”.

The record behind these values is paper PMC12714136, “14-3-3θ phosphorylation at S232 reduces its interactome and regulates axonal trafficking” (Disease Models & Mechanisms, 2025).
